At least one read-out could not be matched to a standard name with certainty.
Test system: WT Mtb Erdman
Assay: Disk zone of inhibition assay
Type: cell-based, Mycobacterium tuberculosis
Conditions: radius of zone absent of bacterial growth; 5 μl of 100 mM stock in DMSO on disk, Middlebrook 7H10 agar, 10 days at 37° C.

SMILES: CCc1nc(NC2CC2)c2cc(C)sc2n1 [Example 0946, N-Cyclopropyl-2-ethyl-6-methylthieno[2,3-d]pyrimidin-4-amine]
- Disk Zone of Inhibition: 20 mm

From patent publication US20220117968A1, “THIENO[2,3-D)PYRIMIDINES AND BENZOFURO(3,2-D)PYRIMIDINES AS ANTIMICROBIAL AGENTS” (Saint Louis University, priority 2017, published 2022)
